Assay results taken from patent publication US20210128561A1, “MRGX Receptor Antagonists” (Rheinische-Friedrich-Wilhelms-Universität Bonn, priority 2019, published 2021).
The match of structure and compound is tentative.

By UniProt entry, the sequences of proteins in these tests, tags left out.
UniProt Q96LA9, whole entry L83S: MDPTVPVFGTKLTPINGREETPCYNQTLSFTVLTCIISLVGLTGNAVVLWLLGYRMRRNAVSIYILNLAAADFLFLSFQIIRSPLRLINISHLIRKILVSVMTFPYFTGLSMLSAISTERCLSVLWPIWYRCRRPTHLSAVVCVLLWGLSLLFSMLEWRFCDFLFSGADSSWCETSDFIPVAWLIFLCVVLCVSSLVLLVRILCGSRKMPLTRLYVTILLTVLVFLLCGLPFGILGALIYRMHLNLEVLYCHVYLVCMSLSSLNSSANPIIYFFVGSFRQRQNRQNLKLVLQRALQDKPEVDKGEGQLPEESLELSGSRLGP

Target: human MrgX4 L83S (Homo sapiens, UniProt Q96LA9, L83S)
Assay: β-arrestin assay (CHO β-arrestin human MrgX4 L83S)
Format: cell-based

## COc1ccc(-c2cc(=O)n3c(n2)[nH]c2ccccc23)cc1
  IC50: > 10 µM
